Measurements: patent US4536518A, “Antidepressant derivatives of cis-4-phenyl-1,2,3,4-tetrahydro-1-naphthalenamine” (priority 1979, dated 1985)

What follows are compounds tested on Synaptosomal Uptake of Serotonin (5HT), rat corpus striatum (assay: Blockade of synaptosomal uptake of serotonin (5HT) in vitro). Details: brain synaptosomes.
Assay type: biochemical, rat (Sprague-Dawley CD)
Method: Sprague-Dawley CD male rats weighing 180-220 g. (Charles River Laboratories, Inc.; Wilmington, Mass.) were used in this procedure. A crude synaptosomal fraction of rat corpus striatum (for 5HT and DA uptake) or hypothalmus (for NE uptake) tissue was prepared by homogenizing tissue (25 ml./g. wet) in ice-cold 0.32M sucrose containing 1 mg./ml. glucose, 0.0001M EDTA and tris(hydroxymethyl)aminomethane to pH 7.4. The homogenate was centrifuged at 1000 × g for 10 min. at 0°-4° C., the pellet discarded and the supernatant centrifuged at 17,000 × g for 20 min. at 0°-4° C. The resulting pellet was resuspended in the ice-cold 0.32M sucrose pH 7.4 solution at 10 ml./g. original tissue (wet) for corpus striatum and 5 ml./g. original tissue (wet) for hypothalmus. […] After incubation, the mixtures were filtered through 0.45 micron Millipore filters and the filters washed with the incubation buffer. […] Uptake was calculated as picomoles 5HT, DA or NE per mg. protein (protein was determined by measurement with Folin phenol reagent).
In the case of CN(C)[C@H]1CC[C@@H](c2cccc(C(F)(F)F)c2)c2ccccc21 (relative stereo) [Example 22, Cis-(1S)(1R)-N,N-dimethyl-4-(3-trifluoromethylphenyl)-1,2,3,4-tetrahydro-1-naphthalenamine Maleate], the “IC50 (5HT) / IC50 (NE)” value was 0.21. In the case of CN[C@H]1CC[C@@H](c2ccc(Cl)cc2)c2ccc(Cl)cc21 (relative stereo) [Example 15, Cis-(1S)(1R)-N-methyl-4-(4-chlorophenyl)-7-chloro-1,2,3,4-tetrahydro-1-naphthalenamine Hydrochloride], the “IC50 (5HT) / IC50 (NE)” value was 0.14. With CN[C@H]1CC[C@@H](c2ccc(Cl)cc2)c2ccc(OC)cc21 (relative stereo) [Example 21, Cis-(1S) (1R)-N-methyl-4-(4-chlorophenyl)-7-methoxy-1,2,3,4-tetrahydro-1-naphthalenamine Hydrochloride] the “IC50 (5HT) / IC50 (NE)” value was 0.40. With CN[C@@H]1CC[C@H](c2cccc(C(F)(F)F)c2)c2ccccc21 (relative stereo) [Example 11, Cis-N-methyl-4-(3-trifluoromethyl-phenyl)-1,2,3,4-tetrahydro-1-naphthalenamine] the “IC50 (5HT) / IC50 (NE)” value was 0.10. With CN[C@H]1CC[C@@H](c2ccccc2)c2ccccc21 (relative stereo) [Comparative Example, Cis(1S) (1R)N--methyl-4-phenyl-1,2,3,4-tetrahydro-1-naphthalenamin hydrochloride, reference compound] the “IC50 (5HT) / IC50 (NE)” value was 1.8. CN[C@H]1CC[C@@H](c2cccc(OC)c2)c2ccccc21 (relative stereo) [Example 19] was tested, and the “IC50 (5HT) / IC50 (NE)” value was 5.4. With CN[C@H]1CC[C@@H](c2ccc(Br)cc2)c2ccccc21 (relative stereo) [Example 16, Cis-(1S)(1R)-N-methyl-4-(4-bromophenyl)-1,2,3,4-tetrahydro-1-naphthalenamine Hydrochloride] the “IC50 (5HT) / IC50 (NE)” value was 0.14. With CN[C@H]1CC[C@@H](c2ccccc2OC)c2ccccc21 (relative stereo) [Example 18] the “IC50 (5HT) / IC50 (NE)” value was 1.8.

Where a name gives a salt, the structure may show the parent alone.
